PubChem BioAssay AID652259 – Drosophila RNAi Screening Center – 2013
Test: 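Knock-downs that push a Wingless-driven reporter up or down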 (primary screen). System: Drosophila clone 8 imaginal disc epithelial cells. Knock-down reagent: long dsRNA against Drosophila genes. Treatment: pathway stimulated by co-transfected Wingless expression plasmid. Read-out: 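Dual luciferase reads per well after Wingless plasmid stimulation: reporter firefly light and Renilla control light; activity is firefly divided by Renilla, a ratio not deposited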. Reading the numbers: firefly reporter light: higher = more Wg reporter light, before normalisation; Renilla control light: higher = more transfected or surviving cells. Call rule: 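Strong candidates differ from their plate mean by at least two out of four per-plate statistical tests; weak candidates meet just one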. Meaning of the calls: active = candidate regulator (raises or lowers reporter); inactive = not a candidate.
In all, the deposit lists about 22,000 reagents; this is a random part of those with a known target gene and a result. Over the whole deposit, 233 (1.1%) were called active. 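Light values are raw, unnormalised plate reads; the ratio scores behind the reporter calls were not deposited.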 Not stated in the record: the amount of reagent, the time to read-out, the dose of the treatment.

Gene	amplicon	reporter change call, replicate 1	firefly reporter light, replicate 1	firefly reporter light, replicate 2	Renilla control light, replicate 1	Renilla control light, replicate 2	Call
CG33062	DRSC22195		8.24e5	8.61e5	2.24e5	2.37e5	inactive
CG18853	DRSC06795		3261	5531	208	3060	inactive
CG14464	DRSC07760		4736		2320		inactive
Daao2	DRSC02135		17911		6275		inactive
mRpL50	DRSC11015		12161	6.95e5	4167	3.62e5	inactive
phu	DRSC16390		12748		2245		inactive
CG30466	DRSC05556		22436		14517		inactive
Rca1	DRSC03407		5881		3989		inactive
CG6701	DRSC07007		4454		2274		inactive
lncRNA:CR41601	DRSC22158		4.90e5	5.16e5	1.86e5	1.76e5	inactive
Teh2	DRSC08458		6893		2832		inactive
ktub	DRSC04551		11857		3920		inactive
CG13309	DRSC09980		1402	4548	1148	2348	inactive
PGRP-LB	DRSC14926		10439		3432		inactive
SCAR	DRSC03426		5261	11339	1056	4199	inactive
CG43278 (retired record)	DRSC17524		5227		1210		inactive
CG4372	DRSC04466		3536	4262	1047	2188	inactive
Trmt6	DRSC03272		2280	7442	957	3361	inactive
CG6028	DRSC15951		4489	9284	961	1656	inactive
RpS16	DRSC04442		2992	6106	625	1600	inactive
laza	DRSC11661		6667		3046		inactive
CG15296	DRSC17983		18224		6986		inactive
Vha44	DRSC07572	Wg reporter activity raised	30471		5009		inactive
Vha44	DRSC07573		7561		1866		inactive
CG4911	DRSC10456		2282		1441		inactive
Cpr65Ay	DRSC08796		3219		2060		inactive
CG14830	DRSC08876		4231		1874		inactive
NetB	DRSC20262		1872	5920	829	2600	inactive
CG8861	DRSC12731		2258		1561		inactive
CG8861	DRSC16449		12976		2464		inactive
Dpp10	DRSC00942		19040		8390		inactive
Dpp10	DRSC02139		2964	3289	791	1467	inactive
wus	DRSC20278		1833	5920	852	1955	inactive
CG1688	DRSC05934		8034		1675		inactive
CG3740	DRSC18508		16422		12316		inactive
CG14183	DRSC10182		6016		2642		inactive
l(3)72Dr	DRSC10478		6775		3190		inactive
esn	DRSC05039		19783		7466		inactive
esn	DRSC06181		2629	6186	625	2960	inactive
esn	DRSC07612		1804	5200	420	1989	inactive
ND-B16.6	DRSC18306		19552		10200		inactive
ND-B16.6	DRSC22600		6.66e5	6.21e5	1.98e5	1.43e5	inactive
fz3	DRSC18779		25524		16512		inactive
CG10477	DRSC09732		1248	9421	1002	3388	inactive
cv-d	DRSC16522		2130	5104	1160	1061	inactive
cv-d	DRSC16524		9472		1865		inactive
cv-d	DRSC16526		17473		3243		inactive
CG3698	DRSC11749		7794		3523		inactive
Cyp6a14	DRSC07376		2272	4841	833	1866	inactive
beat-IIIc	DRSC02438		3910	5666	1609	3616	inactive
beat-IIIc	DRSC02949		2581	6829	1584	3829	inactive
phyl	DRSC07663		5586		2213		inactive
CG34452	DRSC09387		4515		983		inactive
CG11369	DRSC17779		30929		9536		inactive
CG42784	DRSC02534		23304		6264		inactive
CG42784	DRSC02535		2122	6964	569	1093	inactive
CG42784	DRSC22272		4.48e5	4.55e5	1.70e5	1.62e5	inactive
CG42784	DRSC22804		2.82e5	3.71e5	1.17e5	1.46e5	inactive

The list goes on, starting with the last 3 of the part before.
Gene	amplicon	reporter change call, replicate 1	firefly reporter light, replicate 1	firefly reporter light, replicate 2	Renilla control light, replicate 1	Renilla control light, replicate 2	Call
CG42784	DRSC02535		2122	6964	569	1093	inactive
CG42784	DRSC22272		4.48e5	4.55e5	1.70e5	1.62e5	inactive
CG42784	DRSC22804		2.82e5	3.71e5	1.17e5	1.46e5	inactive
CG14453	DRSC11710		20077	6.77e5	6932	3.37e5	inactive
CG3907	DRSC04432		2304	6219	330	2467	inactive
CG1637	DRSC18865		3047		795		inactive
CG1637	DRSC19748		1890	5360	746	1808	inactive
CG1637	DRSC19749		15328		7440		inactive
COX2 (retired record)	DRSC21276		16109		9748		inactive
mv	DRSC08208		6755		2624		inactive
mv	DRSC08570		4853		2224		inactive
CG43367	DRSC08299		6929		2929		inactive
CG43367	DRSC08301		5318		2436		inactive
CG43367	DRSC08309		4841		2709		inactive
CG32448	DRSC22657		6.41e5	5.80e5	2.32e5	140	inactive
CG7848	DRSC07050		3936		1676		inactive
Obp58d	DRSC04162		2554	7084	864	2786	inactive
Surf6	DRSC15588		3228	7909	1273	3046	inactive
CG34457	DRSC06924		6459		2349		inactive
lawc	DRSC22531		1.05e6	1.16e6	97320	53056	inactive
zen2	DRSC12633		16680		4177		inactive
sa	DRSC11649		8870		3883		inactive
CG32767	DRSC18386	Wg reporter activity lowered	10733		14298		active
CG3251	DRSC00586		2960	5719	1483	995	inactive
H15	DRSC03339		1914	5725	912	1024	inactive
H15	DRSC22199		7.74e5	8.47e5	3.65e5	3.93e5	inactive
THADA	DRSC19675		3682	7484	1488	3674	inactive
mRpL16	DRSC18550		4729	9116	2560	4279	inactive
apt	DRSC04671		5335		1611		inactive
hpRNA:CR32205	DRSC09610		2418		1580		inactive
hpRNA:CR32205	DRSC09890		9385		4192		inactive
l(2)34Fc	DRSC01910		3235	6212	1283	2678	inactive
acs	DRSC08185		7050		2426		inactive
trsn	DRSC06078		1561	6887	579	2537	inactive
Coq3	DRSC03168		7000		2105		inactive
CG3085	DRSC04335		9760		2866		inactive
vex	DRSC19481		23457		10821		inactive
vex	DRSC19651		23741		11769		inactive
vex	DRSC21843		4.56e5	4.61e5	1.73e5	1.96e5	inactive
